Test results from publication PMC8709471.
These are yes or no findings as the source states them, for the method shown. In cells and extracts the contact can be indirect. Some binding calls cover weakened binding; strength is not graded here.

Amino acid sequences for entries named in this document (tags omitted).
UniProt P20963: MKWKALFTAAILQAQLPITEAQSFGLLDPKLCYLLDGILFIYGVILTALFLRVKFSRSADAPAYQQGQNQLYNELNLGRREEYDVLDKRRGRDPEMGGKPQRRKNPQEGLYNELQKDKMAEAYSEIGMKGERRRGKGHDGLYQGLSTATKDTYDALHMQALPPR
UniProt P29350: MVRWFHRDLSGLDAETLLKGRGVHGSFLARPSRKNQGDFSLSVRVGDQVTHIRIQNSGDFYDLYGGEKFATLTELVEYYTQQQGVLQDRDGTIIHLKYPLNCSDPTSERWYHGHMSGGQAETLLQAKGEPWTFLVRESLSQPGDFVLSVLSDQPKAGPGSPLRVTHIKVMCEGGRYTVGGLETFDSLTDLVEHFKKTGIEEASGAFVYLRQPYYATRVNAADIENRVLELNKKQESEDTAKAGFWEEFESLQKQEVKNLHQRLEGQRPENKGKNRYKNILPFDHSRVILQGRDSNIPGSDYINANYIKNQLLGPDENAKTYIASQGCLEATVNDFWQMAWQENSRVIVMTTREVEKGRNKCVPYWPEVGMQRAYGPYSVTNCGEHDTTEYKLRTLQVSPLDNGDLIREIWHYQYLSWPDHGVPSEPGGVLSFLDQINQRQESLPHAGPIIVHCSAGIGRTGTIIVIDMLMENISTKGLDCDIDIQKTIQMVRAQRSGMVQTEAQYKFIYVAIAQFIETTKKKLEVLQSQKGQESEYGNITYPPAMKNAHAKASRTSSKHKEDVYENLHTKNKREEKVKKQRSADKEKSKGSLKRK

Biological target: TCR-ζ chain (human (endogenous in Jurkat)) (UniProt P20963)
Assay: co-IP; wild-type and DLG1 KO Jurkat cells activated with anti-CD3; lysis in 150 mM NaCl, 20 mM Tris pH 7.5, 1% Triton X-100; immunoprecipitation with agarose-conjugated anti-TCR-ζ overnight at 4 °C; immunoblot

- binding: binds
Substance: SHP1 (from UniProt P29350 1-595) (enzyme)
